# Assay results: patent US10322998B2 (WISCONSIN ALUMNI RESEARCH FOUNDATION, priority 2002, dated 2019)
# Assay: peptide synthesis
# Details: coupling step
row,Substance,step yield
1,Boc-D-Ala-ACHC-D-Ala-ACHC—OBn,75% yield
2,Boc-D-Val-ACHC-D-Val-ACHC-Olin,80%
3,Boc-Val-ACHC-Val-ACHC-Val-OBn,80%
4,Boc-Lys(2-Cl-Z)-Val-Phe-ACHC-OBn,60%
5,Boc-ACHC-Lys(2-Cl-Z)-Val-ACHC-OBn,75%
6,Boc-Ala-ACHC-Ala-ACHC-OBn,75%
7,Boc-D-Phe-ACHC-D-Phe-ACHC—OBn,72% yield
8,Boc-Lys(2-Cl-Z)-ACHC-Val-ACHC-OBn,90%
9,Boc-D-(Lys2-Cl—Z)-D-Val-D-Phe-ACHC—OBn,60% yield
10,Boc-D-Lys(2-C1-Z)-ACHC-D-Val-ACHC—OBn,90% yield
11,Boc-Phe-ACHC-Phe-ACHC-OBn,72%
12,Boc-ACHC-D-Lys(2-Cl—Z)-D-Val-ACHC—OBn,75% yield
